{"source": "patent US20240093034A1", "about": "“FLUORESCENT DYES” (EXOPHARM LIMITED, priority 2020, published 2024)", "key": {"[1]": {"test_system": "platelet-derived EVs", "assay": "Labelling of extracellular vesicles with dyes (Superose 6 HPLC, UV and FLD detection)", "settings": "EV + 2 μM dye, 1 hr 37° C.; void peak area, 214 nm absorption", "method": "Labelling of extracellular vesicles (EVs) with dyes 1-10 was performed according to the following procedure. 20 μL of platelet-derived EVs were incubated in HPLC vials with or without each dye at a final concentration of 2 μM dye, the dye stock solution being made up in water. For negative controls, an equivalent volume of the diluent solution was added to the EV solution. The sample was mixed gently. Each sample was subsequently incubated for 1 hr at 37° C. Samples were transferred and stored in the autosampler set at 4° C. A batch table was setup that injected unlabelled EVs prior to labelled EVs. A blank injection was run after each labelled EV experiment to ensure there was no carryover. 15 μL of each sample was injected onto a Superose 6 Increase column (3.2/300) from Cytiva. The flow rate was set at 0.15 mL min* The Shimadzu BioHPLC was run in isocratic mode with Buffer A: 1× PBS (phosphate-buffered saline), pH 7.4, 100 nm filtered. The column oven temperature was set at 30° C. Total run duration was 30 min. Data was collected using two detectors. The PDA (UV detector) was set to scan from 190-800 nm and a channel of the FLD (fluorescence detector) was set at 562 nm/583 nm (Ex/Em). Titration experiments were conducted to confirm that excess dye was removed. The areas of the void peaks from the 214 nm absorption and the 583 nm emission were calculated by the LabSolutions software using the manual integration function. To normalise the fluorescent signal, the total fluorescent area was divided by the UV 214 nm area. This ratio can be used to rank each dye, with higher ratios indicative of greater incorporation."}, "[2]": {"test_system": "NHDF cells", "assay": "Removing excess dye with 40K MWCO Zeba Spin Desalting Column", "set-up": "species or system human", "settings": "for cell staining after Zeba spin column (FIG. 5): 2 μM dye in 1× PBS, normalised to PLX+dye 2"}, "[3]": {"test_system": "MSC-EVs", "assay": "Dye labelling of MSC-EV preparations analysed by imaging flow cytometry (IFCM)", "method": "MSC-EVs were prepared form human platelet lysate containing MSC-conditioned media by polyethylene glycol 6000 precipitation followed by ultracentrifugation, as described previously (Borger, V. et al, 2020, Scaled Isolation of Mesenchymal Stem/Stromal Cell-Derived Extracellular Vesicles. Curr Protoc Stem Cell Biol 55, e128; Kordelas et al., 2014, MSC-derived exosomes: a novel tool to treat therapy-refractory graft-versus-host disease. Leukemia 28, 970-973; Ludwig et al., 2018, Precipitation with polyethylene glycol followed by washing and pelleting by ultracentrifugation enriches extracellular vesicles from tissue culture supernatants in small and large scales. J Extracell Vesicles 7, 1528109). Conditioned media were harvested every 48 h. Obtained MSC-EV preparations were diluted in NaCl-HEPES buffer (Sigma-Aldrich, Taufkirchen, Germany) such that 1 mL of final samples contained the preparation yield of the conditioned media of approximately 4.0×10^7 cells.\nThe staining with CFSE (Thermo Fisher Scientific, Darmstadt, Germany) was based on the manufacturer's protocol. Slight modifications were required to reduce the signal from unbound CFSE. Briefly, the CFSE stock solution was diluted to a working solution of 10 μM CFSE. The solution was centrifuged three times for 10 min at 17,000 × g. Subsequently, 25 μL of MSC-EV preparations, corresponding to the amount of EVs derived from 1×10^6 MSCs, were incubated with the centrifuged CFSE solution for 20 min at 37° C. The sample was diluted 1:20 to a final volume of 1 mL prior to analysis.\nThe staining of MSC-EV preparations with Calcein AM followed the manufacturer's instructions. Briefly, 25 μL of MSC-EV preparations were incubated with 25 μL of a 20 μM solution of Calcein AM (Thermo Fisher Scientific) for 40 min at 37° C. The sample was diluted 1:20 to a final volume of 1 mL to reduce background noise, avoiding the requirement of a washing step.\nThe staining of MSC-EV preparations with BODIPY-TR-Ceramide followed the manufacturer's instructions. […]"}}, "data": [{"smiles": "CCCCCCCCCCCCCCCCN(C)C(=O)c1ccccc1-c1c2ccc(=[N+](CC)CC)cc-2oc2cc(N(CC)CC)ccc12.[Cl-]", "note": "[Dye 1, Rhodamine B N-methylhexadecylamide]", "values": [{"measurement": "UV area (EV + dye)", "setting": "[1]", "value": 1092869}]}, {"smiles": "CCCCCCCCCCCCCCCCCCN(C)C(=O)c1ccccc1-c1c2ccc(=[N+](CC)CC)cc-2oc2cc(N(CC)CC)ccc12.[Cl-]", "note": "[Dye 2, Rhodamine B N-methyloctadecylamide]", "values": [{"measurement": "UV area (EV + dye)", "setting": "[1]", "value": 554454}, {"measurement": "Fluorescence - Zeba column", "setting": "[2]; 0.02 μM dye", "value": "1151 ± 14"}, {"measurement": "Fluorescence - no Zeba column", "setting": "[2]; 0.02 μM dye", "value": "1130 ± 20"}, {"measurement": "Fluorescence - Zeba column", "setting": "[2]; 0.2 μM dye", "value": "1206 ± 20"}, {"measurement": "Fluorescence - no Zeba column", "setting": "[2]; 0.2 μM dye", "value": "1829 ± 32"}, {"measurement": "Fluorescence - Zeba column", "setting": "[2]; 2 μM dye", "value": "1529 ± 14"}, {"measurement": "Fluorescence - no Zeba column", "setting": "[2]; 2 μM dye", "value": "10299 ± 132"}, {"measurement": "light scattering (SSC) of objects specifically labelled in MSC-EV preparations", "setting": "[3]; dye + MSC-EVs", "value": "reflect those of sEVs"}, {"measurement": "labelled objects after NP40 treatment", "setting": "[3]; dye + MSC-EVs + detergent NP40", "value": "disappeared following NP40 treatment"}, {"measurement": "objects in dye only solution (FIG. 8)", "setting": "[3]; dye in NaCl-HEPES buffer, no EV preparation", "value": "contain no objects"}]}, {"smiles": "CCCCCCCCCCCCCCCCCCCCN(C)C(=O)c1ccccc1-c1c2ccc(=[N+](CC)CC)cc-2oc2cc(N(CC)CC)ccc12.[Cl-]", "note": "[Dye 3, Rhodamine B N-methylicosaneamide]", "values": [{"measurement": "UV area (EV + dye)", "setting": "[1]", "value": 1177448}]}, {"smiles": "CCCCCCCCCCCCCCCCCCCCCCN(C)C(=O)c1ccccc1-c1c2ccc(=[N+](CC)CC)cc-2oc2cc(N(CC)CC)ccc12.[Cl-]", "note": "[Dye 4]", "values": [{"measurement": "UV area (EV + dye)", "setting": "[1]", "value": 913937}]}, {"smiles": "CCCCCCCCCCCCCCN(CCCCC)C(=O)c1ccccc1-c1c2ccc(=[N+](CC)CC)cc-2oc2cc(N(CC)CC)ccc12.[Cl-]", "note": "[Dye 5, Rhodamine B N-pentyltetradecanamide]", "values": [{"measurement": "UV area (EV + dye)", "setting": "[1]", "value": 1918454}]}, {"smiles": "CCCCCCCCCCCCCCCCCCN(CCCCC)C(=O)c1ccccc1-c1c2ccc(=[N+](CC)CC)cc-2oc2cc(N(CC)CC)ccc12.[Cl-]", "note": "[Dye 6, Rhodamine B N-pentyloctadecanamide]", "values": [{"measurement": "UV area (EV + dye)", "setting": "[1]", "value": 1803632}]}, {"smiles": "CCCCCCCCCCCCCCCCN(CCOC)C(=O)c1ccccc1-c1c2ccc(=[N+](CC)CC)cc-2oc2cc(N(CC)CC)ccc12.[Cl-]", "note": "[Dye 7, Rhodamine B N-ethyl methyl ether hexadecanamide]", "values": [{"measurement": "UV area (EV + dye)", "setting": "[1]", "value": 1056319}]}, {"smiles": "CCCCCCCCCCCCCCCCCCN(CCOC)C(=O)c1ccccc1-c1c2ccc(=[N+](CC)CC)cc-2oc2cc(N(CC)CC)ccc12.[Cl-]", "note": "[Dye 8, Rhodamine B N-ethyl methyl ether octadecanamide]", "values": [{"measurement": "UV area (EV + dye)", "setting": "[1]", "value": 1173725}]}, {"smiles": "CCCCCCCCCCCCCCCCCCN(CCO)C(=O)c1ccccc1-c1c2ccc(=[N+](CC)CC)cc-2oc2cc(N(CC)CC)ccc12.[Cl-]", "note": "[Dye 9, Rhodamine B N-(2-hydroxyethyl)octadecanamide]", "values": [{"measurement": "UV area (EV + dye)", "setting": "[1]", "value": 1367007}]}, {"smiles": "CCCCCCCCCCCCCCCCCCCCN(CCOC)C(=O)c1ccccc1-c1c2ccc(=[N+](CC)CC)cc-2oc2cc(N(CC)CC)ccc12.[Cl-]", "note": "[Dye 10, Rhodamine B N-ethyl methyl ether icosaneamide]", "values": [{"measurement": "UV area (EV + dye)", "setting": "[1]", "value": 1106893}]}, {"smiles": "CCCCCCCC/C=C\\CCCCCCCCN(C)C(=O)c1ccccc1-c1c2ccc(=[N+](CC)CC)cc-2oc2cc(N(CC)CC)ccc12", "note": "[Dye 17, Rhodamine B N-methyloleylamide]", "values": [{"measurement": "cell staining after Zeba spin column (FIG. 5)", "setting": "[2]", "value": "no cell staining was observed"}]}, {"smiles": "CCCCCCCC/C=C/CCCCCCCCN(C)C(=O)c1ccccc1-c1c2ccc(=[N+](CC)CC)cc-2oc2cc(N(CC)CC)ccc12", "note": "[Dye 18, Rhodamine B N-methylelaidylamide]", "values": [{"measurement": "cell staining after Zeba spin column (FIG. 5)", "setting": "[2]", "value": "no cell staining was observed"}]}]}
